These are literature values, as cited in patent EP2773641B1, “BIARYL ETHER SULFONAMIDES AND THEIR USE AS THERAPEUTIC AGENTS” (Xenon Pharmaceuticals Inc., priority 2011, dated 2013).

The conditions of this series: administered topically (Lidoderm patch); cited from earlier work.

On to `CCN(CC)CC(=O)Nc1c(C)cccc1C` [Lidocaine, lidocaine], for which the plasma concentrations result was “about 1 µM”.
